Results: article PMC7265341, “Quantifying CDK inhibitor selectivity in live cells” (Nature Communications, 2020)

Protein sequences, listed by entry. Tags and fused reporters are not part of them. Residues count along the entry.
UniProt P06493, whole entry: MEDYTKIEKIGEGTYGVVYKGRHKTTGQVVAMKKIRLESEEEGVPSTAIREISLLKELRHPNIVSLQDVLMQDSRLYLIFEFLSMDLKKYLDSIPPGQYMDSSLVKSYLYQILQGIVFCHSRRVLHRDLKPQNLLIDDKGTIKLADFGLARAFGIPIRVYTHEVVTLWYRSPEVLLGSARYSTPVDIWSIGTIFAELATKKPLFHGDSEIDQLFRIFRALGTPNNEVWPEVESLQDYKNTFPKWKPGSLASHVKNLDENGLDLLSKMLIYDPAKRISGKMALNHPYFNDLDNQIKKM
UniProt Q00526, whole entry: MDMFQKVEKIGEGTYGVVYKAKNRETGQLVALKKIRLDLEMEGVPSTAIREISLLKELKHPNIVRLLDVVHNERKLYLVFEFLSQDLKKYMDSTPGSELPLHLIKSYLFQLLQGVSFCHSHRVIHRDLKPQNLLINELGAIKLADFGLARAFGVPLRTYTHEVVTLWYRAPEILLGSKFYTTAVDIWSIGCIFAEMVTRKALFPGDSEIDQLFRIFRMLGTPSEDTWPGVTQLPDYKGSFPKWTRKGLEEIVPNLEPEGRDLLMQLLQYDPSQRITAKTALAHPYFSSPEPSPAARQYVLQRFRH
UniProt P11802, whole entry: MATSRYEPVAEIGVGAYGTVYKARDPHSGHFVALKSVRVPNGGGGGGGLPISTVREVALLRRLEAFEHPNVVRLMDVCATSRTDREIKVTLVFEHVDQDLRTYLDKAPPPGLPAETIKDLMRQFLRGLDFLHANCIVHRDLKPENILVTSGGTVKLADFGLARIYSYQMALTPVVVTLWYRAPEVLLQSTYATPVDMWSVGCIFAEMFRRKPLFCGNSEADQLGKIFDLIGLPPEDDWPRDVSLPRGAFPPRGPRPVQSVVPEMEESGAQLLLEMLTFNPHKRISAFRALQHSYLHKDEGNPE
UniProt Q00535, whole entry: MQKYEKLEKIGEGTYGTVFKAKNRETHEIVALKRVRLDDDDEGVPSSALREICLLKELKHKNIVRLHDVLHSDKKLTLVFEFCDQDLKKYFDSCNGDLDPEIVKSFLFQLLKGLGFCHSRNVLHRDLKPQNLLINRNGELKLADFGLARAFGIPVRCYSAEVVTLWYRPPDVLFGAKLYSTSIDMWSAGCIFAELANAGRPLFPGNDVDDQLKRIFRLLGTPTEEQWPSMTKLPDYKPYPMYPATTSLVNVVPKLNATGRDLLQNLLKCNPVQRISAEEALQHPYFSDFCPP
UniProt P50750, whole entry: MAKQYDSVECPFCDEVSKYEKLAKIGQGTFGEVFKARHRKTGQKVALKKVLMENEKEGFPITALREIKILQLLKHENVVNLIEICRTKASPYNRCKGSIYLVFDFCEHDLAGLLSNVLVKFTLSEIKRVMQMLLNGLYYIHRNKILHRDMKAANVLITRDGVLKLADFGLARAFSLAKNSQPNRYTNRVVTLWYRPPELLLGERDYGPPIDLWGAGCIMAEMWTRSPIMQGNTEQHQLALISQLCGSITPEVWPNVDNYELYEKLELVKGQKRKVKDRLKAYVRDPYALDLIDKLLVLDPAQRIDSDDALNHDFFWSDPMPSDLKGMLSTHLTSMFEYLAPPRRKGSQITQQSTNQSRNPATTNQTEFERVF
UniProt Q14004, 1-1452 isoform 2: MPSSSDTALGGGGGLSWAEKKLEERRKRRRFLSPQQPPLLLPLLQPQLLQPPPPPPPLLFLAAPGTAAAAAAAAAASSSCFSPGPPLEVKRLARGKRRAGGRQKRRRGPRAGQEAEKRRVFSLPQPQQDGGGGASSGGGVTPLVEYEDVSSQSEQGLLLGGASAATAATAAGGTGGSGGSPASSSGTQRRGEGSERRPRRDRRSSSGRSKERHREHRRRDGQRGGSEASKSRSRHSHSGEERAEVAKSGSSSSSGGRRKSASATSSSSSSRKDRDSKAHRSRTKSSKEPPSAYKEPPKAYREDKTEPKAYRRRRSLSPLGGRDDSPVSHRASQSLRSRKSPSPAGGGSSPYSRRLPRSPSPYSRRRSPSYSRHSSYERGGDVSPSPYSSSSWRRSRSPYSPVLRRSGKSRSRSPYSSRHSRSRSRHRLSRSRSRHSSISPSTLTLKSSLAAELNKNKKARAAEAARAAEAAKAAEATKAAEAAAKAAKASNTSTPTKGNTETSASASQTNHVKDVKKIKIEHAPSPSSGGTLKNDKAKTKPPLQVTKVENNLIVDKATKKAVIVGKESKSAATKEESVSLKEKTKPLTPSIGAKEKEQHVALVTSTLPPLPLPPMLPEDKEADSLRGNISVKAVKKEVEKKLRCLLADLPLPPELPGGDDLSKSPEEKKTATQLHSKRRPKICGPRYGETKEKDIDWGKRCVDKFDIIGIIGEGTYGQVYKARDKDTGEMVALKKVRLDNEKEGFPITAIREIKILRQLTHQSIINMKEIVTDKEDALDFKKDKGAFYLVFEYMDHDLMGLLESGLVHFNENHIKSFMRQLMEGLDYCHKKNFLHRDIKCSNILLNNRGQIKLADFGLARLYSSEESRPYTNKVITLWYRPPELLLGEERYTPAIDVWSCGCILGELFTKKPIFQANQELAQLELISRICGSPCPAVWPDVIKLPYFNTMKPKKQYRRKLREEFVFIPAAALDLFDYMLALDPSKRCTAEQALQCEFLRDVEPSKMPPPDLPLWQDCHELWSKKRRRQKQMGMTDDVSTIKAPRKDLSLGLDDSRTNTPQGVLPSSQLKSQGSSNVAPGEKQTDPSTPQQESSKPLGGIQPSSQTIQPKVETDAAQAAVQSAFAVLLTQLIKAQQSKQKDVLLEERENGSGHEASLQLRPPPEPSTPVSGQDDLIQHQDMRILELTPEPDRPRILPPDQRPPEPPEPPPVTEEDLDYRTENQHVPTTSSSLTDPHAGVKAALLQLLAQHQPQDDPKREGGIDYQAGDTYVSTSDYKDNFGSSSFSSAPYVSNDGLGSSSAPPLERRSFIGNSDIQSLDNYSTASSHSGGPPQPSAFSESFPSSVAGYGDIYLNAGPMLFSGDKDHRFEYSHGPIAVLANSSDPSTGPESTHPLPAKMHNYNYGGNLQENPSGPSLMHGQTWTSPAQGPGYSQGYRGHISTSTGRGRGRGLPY
UniProt Q14004, whole entry: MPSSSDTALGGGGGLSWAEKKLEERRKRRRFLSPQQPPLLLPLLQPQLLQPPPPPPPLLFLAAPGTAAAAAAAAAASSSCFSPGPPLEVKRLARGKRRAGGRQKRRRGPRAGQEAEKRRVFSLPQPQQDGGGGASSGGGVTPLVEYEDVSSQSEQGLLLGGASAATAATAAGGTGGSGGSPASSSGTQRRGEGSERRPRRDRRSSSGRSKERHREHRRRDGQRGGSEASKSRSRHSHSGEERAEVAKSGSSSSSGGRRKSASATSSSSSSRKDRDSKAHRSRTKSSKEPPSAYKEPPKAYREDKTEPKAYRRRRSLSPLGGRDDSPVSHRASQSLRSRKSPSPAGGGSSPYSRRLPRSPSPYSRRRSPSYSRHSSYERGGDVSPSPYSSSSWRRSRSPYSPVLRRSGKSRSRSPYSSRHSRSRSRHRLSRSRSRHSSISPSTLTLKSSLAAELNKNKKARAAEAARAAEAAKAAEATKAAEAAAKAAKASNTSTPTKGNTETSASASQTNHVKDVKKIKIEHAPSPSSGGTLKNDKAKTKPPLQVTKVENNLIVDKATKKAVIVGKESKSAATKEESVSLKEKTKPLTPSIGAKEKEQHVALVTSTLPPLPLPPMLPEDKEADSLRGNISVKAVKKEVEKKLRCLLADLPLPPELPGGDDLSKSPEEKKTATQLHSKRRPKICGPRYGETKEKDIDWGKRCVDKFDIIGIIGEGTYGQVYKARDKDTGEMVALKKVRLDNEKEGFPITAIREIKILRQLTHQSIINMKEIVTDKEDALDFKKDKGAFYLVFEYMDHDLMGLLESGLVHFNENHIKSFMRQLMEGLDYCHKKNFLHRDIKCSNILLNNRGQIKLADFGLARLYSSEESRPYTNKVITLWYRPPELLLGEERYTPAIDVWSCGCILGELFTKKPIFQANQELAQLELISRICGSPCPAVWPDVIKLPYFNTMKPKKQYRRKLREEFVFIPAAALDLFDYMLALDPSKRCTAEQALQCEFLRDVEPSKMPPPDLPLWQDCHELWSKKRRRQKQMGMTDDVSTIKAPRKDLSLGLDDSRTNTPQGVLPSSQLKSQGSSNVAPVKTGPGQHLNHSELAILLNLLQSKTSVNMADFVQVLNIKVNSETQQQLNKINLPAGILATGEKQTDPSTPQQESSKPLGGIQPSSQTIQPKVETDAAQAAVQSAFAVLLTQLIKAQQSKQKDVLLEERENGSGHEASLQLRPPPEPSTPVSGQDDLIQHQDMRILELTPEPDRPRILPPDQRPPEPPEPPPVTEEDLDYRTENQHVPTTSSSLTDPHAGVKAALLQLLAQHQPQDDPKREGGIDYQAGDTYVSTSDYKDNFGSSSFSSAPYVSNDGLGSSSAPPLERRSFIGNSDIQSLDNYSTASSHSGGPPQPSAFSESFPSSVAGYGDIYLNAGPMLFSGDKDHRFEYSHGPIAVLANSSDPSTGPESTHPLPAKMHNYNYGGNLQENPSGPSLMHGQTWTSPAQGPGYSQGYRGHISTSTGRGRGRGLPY
UniProt Q00536, whole entry: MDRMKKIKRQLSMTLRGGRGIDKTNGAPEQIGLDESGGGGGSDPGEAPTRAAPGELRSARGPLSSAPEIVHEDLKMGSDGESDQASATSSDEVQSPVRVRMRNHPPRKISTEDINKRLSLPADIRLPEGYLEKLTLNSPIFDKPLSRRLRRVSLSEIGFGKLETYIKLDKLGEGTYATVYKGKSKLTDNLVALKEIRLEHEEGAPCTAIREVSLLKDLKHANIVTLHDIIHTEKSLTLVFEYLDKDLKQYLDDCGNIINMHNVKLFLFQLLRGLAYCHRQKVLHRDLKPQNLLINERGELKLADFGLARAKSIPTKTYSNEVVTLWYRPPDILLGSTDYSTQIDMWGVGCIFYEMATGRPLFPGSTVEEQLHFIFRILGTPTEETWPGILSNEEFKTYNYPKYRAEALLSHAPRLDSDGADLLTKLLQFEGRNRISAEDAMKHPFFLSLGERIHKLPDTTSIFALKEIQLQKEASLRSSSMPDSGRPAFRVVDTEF
UniProt Q00537, whole entry: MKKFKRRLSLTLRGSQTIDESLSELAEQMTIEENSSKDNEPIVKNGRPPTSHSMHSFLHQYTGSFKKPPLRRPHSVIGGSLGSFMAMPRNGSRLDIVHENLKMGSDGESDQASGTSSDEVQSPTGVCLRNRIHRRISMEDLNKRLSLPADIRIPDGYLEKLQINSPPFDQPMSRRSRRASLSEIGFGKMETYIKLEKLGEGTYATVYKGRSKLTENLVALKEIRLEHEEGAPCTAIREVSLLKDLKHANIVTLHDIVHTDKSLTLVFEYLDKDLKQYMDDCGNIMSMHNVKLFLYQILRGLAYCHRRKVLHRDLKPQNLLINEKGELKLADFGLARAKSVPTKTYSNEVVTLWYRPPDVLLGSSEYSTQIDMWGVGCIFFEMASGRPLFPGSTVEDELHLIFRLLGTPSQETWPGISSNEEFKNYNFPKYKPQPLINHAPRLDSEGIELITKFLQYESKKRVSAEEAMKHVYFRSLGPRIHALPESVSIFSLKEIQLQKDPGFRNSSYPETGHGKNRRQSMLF
UniProt Q07002, whole entry: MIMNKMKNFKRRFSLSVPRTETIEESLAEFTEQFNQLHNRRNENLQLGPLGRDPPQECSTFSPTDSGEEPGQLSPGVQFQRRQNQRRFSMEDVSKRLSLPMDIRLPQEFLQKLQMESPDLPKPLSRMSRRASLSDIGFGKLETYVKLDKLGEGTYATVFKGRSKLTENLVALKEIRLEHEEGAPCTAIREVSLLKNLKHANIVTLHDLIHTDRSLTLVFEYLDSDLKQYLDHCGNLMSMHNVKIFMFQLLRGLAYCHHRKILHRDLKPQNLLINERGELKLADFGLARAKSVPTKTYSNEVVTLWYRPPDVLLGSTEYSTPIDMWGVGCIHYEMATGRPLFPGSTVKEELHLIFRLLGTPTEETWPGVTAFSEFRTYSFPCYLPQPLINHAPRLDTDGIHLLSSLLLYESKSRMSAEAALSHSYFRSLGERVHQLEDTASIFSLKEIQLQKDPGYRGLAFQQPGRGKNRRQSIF
UniProt Q8IZL9, whole entry: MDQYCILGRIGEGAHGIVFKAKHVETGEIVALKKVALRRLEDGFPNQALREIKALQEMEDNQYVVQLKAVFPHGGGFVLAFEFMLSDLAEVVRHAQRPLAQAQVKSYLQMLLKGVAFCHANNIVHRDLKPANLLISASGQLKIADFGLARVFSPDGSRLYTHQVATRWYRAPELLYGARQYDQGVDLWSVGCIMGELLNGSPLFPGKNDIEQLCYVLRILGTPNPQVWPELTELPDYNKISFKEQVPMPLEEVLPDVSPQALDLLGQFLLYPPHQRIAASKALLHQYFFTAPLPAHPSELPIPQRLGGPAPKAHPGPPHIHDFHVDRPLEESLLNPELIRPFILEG

Experiments:
CDK1/Cyclin E1 = CDK1/Cyclin E1 (Homo sapiens, UniProt P06493); assay: NanoBRET live-cell target engagement, CDK1-NanoLuc/Cyclin E1 in HEK-293; type: binding
CDK2/Cyclin E1 = CDK2/Cyclin E1 (Homo sapiens, UniProt P24941); assay: NanoBRET live-cell target engagement, CDK2-NanoLuc/Cyclin E1 in HEK-293; type: binding
CDK3/Cyclin E1 = CDK3/Cyclin E1 (Homo sapiens, UniProt Q00526); assay: NanoBRET live-cell target engagement, CDK3-NanoLuc/Cyclin E1 in HEK-293; type: binding
CDK4/Cyclin D1 = CDK4/Cyclin D1 (Homo sapiens, UniProt P11802); assay: NanoBRET live-cell target engagement, NanoLuc-CDK4/Cyclin D1 in HEK-293; type: binding; settings: probe 0.5µM, normalised to 20µM unlabeled parent compound; n=1
CDK5/CDK5R1 = CDK5/CDK5R1 (Homo sapiens, UniProt Q00535); assay: NanoBRET live-cell target engagement, CDK5-NanoLuc/CDK5R1 in HEK-293; type: binding
CDK6/Cyclin D1 = CDK6/Cyclin D1 (Homo sapiens, UniProt Q00534); assay: NanoBRET live-cell target engagement, NanoLuc-CDK6/Cyclin D1 in HEK-293; type: binding; settings: probe 0.5µM, normalised to 20µM unlabeled parent compound; n=1
CDK7 = CDK7 (Homo sapiens, UniProt P50613); assay: NanoBRET live-cell target engagement, NanoLuc-CDK7 in HEK-293; type: binding; settings: probe 0.5µM, normalised to 20µM unlabeled parent compound; n=1
CDK8/Cyclin C = CDK8/Cyclin C (Homo sapiens, UniProt P49336); assay: NanoBRET live-cell target engagement, NanoLuc-CDK8/Cyclin C in HEK-293; type: binding; settings: probe 0.5µM, normalised to 20µM unlabeled parent compound; n=1
CDK9/Cyclin K = CDK9/Cyclin K (Homo sapiens, UniProt P50750); assay: NanoBRET live-cell target engagement, NanoLuc-CDK9/Cyclin K in HEK-293; type: binding
CDK11A/Cyclin L2 = CDK11A/Cyclin L2 (Homo sapiens, UniProt Q9UQ88); assay: NanoBRET live-cell target engagement, CDK11A-NanoLuc/Cyclin L2 in HEK-293; type: binding; settings: probe 0.5µM, normalised to 20µM unlabeled parent compound; n=1
CDK11B/Cyclin L2 = CDK11B/Cyclin L2 (Homo sapiens, UniProt P21127); assay: NanoBRET live-cell target engagement, CDK11B-NanoLuc/Cyclin L2 in HEK-293; type: binding; settings: probe 0.5µM, normalised to 20µM unlabeled parent compound; n=1
CDK12/Cyclin K = CDK12/Cyclin K (Homo sapiens, UniProt Q9NYV4); assay: NanoBRET live-cell target engagement, CDK12-NanoLuc/Cyclin K in HEK-293; type: binding
CDK13/Cyclin K = CDK13/Cyclin K (Homo sapiens, UniProt Q14004); assay: NanoBRET live-cell target engagement, CDK13-NanoLuc/Cyclin K in HEK-293; type: binding
CDK14/Cyclin Y = CDK14/Cyclin Y (Homo sapiens, UniProt O94921); assay: NanoBRET live-cell target engagement, CDK14-NanoLuc/Cyclin Y in HEK-293; type: binding; settings: probe 0.5µM, normalised to 20µM unlabeled parent compound; n=1
CDK15/Cyclin Y = CDK15/Cyclin Y (Homo sapiens, UniProt Q96Q40); assay: NanoBRET live-cell target engagement, NanoLuc-CDK15/Cyclin Y in HEK-293; type: binding; settings: probe 0.5µM, normalised to 20µM unlabeled parent compound; n=1
CDK16/Cyclin Y = CDK16/Cyclin Y (Homo sapiens, UniProt Q00536); assay: NanoBRET live-cell target engagement, CDK16-NanoLuc/Cyclin Y in HEK-293; type: binding
CDK17/Cyclin Y = CDK17/Cyclin Y (Homo sapiens, UniProt Q00537); assay: NanoBRET live-cell target engagement, CDK17-NanoLuc/Cyclin Y in HEK-293; type: binding
CDK18/Cyclin Y = CDK18/Cyclin Y (Homo sapiens, UniProt Q07002); assay: NanoBRET live-cell target engagement, CDK18-NanoLuc/Cyclin Y in HEK-293; type: binding
CDK20/Cyclin H = CDK20/Cyclin H (Homo sapiens, UniProt Q8IZL9); assay: NanoBRET live-cell target engagement, NanoLuc-CDK20/Cyclin H in HEK-293; type: binding
[1] = molecular target: CDK/NanoLuc fusions (CDK only samples) (Homo sapiens, UniProt P06493); settings: CDK1
[2] = molecular target: CDK/NanoLuc fusions (CDK only samples) (Homo sapiens, UniProt P24941); settings: CDK2
[3] = molecular target: CDK/NanoLuc fusions (CDK only samples) (Homo sapiens, UniProt P50750); settings: CDK9
[4] = molecular target: CDK/NanoLuc fusions (CDK only samples) (Homo sapiens, UniProt Q00526); settings: CDK3
[5] = molecular target: CDK/NanoLuc fusions (CDK only samples) (Homo sapiens, UniProt Q00535); settings: CDK5
[6] = molecular target: CDK/NanoLuc fusions (CDK only samples) (Homo sapiens, UniProt Q00536); settings: CDK16
[7] = molecular target: CDK/NanoLuc fusions (CDK only samples) (Homo sapiens, UniProt Q00537); settings: CDK17
[8] = molecular target: CDK/NanoLuc fusions (CDK only samples) (Homo sapiens, UniProt Q07002); settings: CDK18
[9] = molecular target: CDK/NanoLuc fusions (CDK only samples) (Homo sapiens, UniProt Q14004); settings: CDK13
[10] = molecular target: CDK/NanoLuc fusions (CDK only samples) (Homo sapiens, UniProt Q8IZL9); settings: CDK20
CDK19/Cyclin C = CDK19/Cyclin C (Homo sapiens, UniProt Q9BWU1); assay: NanoBRET live-cell target engagement, NanoLuc-CDK19/Cyclin C in HEK-293; settings: probe 0.5µM, normalised to 20µM unlabeled parent compound; n=1
CDK10/Cyclin L2 = CDK10/Cyclin L2 (Homo sapiens, UniProt Q15131); assay: NanoBRET live-cell target engagement, CDK10-NanoLuc/Cyclin L2 in HEK-293; settings: probe 0.5µM, normalised to 20µM unlabeled parent compound; n=1
[11] = probe 0.5µM, normalised to 20µM unlabeled parent compound, n=1

## NC(=O)c1ccccc1Nc1nc(Nc2cccc(N3CCN(C(=O)CCOCCOCCOCCOCCNC(=O)CCc4ccc5n4[B-](F)(F)[N+]4=C(c6ccc[nH]6)C=CC4=C5)CC3)c2)ncc1Cl
CDK1/Cyclin E1; CDK1 + Cyclin E1
  Relative BRET signal: 3.10
CDK1/Cyclin E1; [11]
  Relative BRET Signal, CDK1 + Cyclin E1: 3.1
CDK2/Cyclin E1; CDK2 + Cyclin E1
  Relative BRET signal: 8.83
CDK2/Cyclin E1; [11]
  Relative BRET Signal, CDK2 + Cyclin E1: 8.83
CDK3/Cyclin E1; CDK3 + Cyclin E1
  Relative BRET signal: 9.16
CDK3/Cyclin E1; [11]
  Relative BRET Signal, CDK3 + Cyclin E1: 9.16
CDK3/Cyclin E1; read-out: Kd,apparent of probe (linearized Cheng-Prusoff), CDK3/Cyclin E1, dinaciclib as competitor
  Kd: 770 nM
CDK4/Cyclin D1
  Relative BRET Signal, CDK4 + Cyclin D1: 1.37
CDK5/CDK5R1; CDK5 + CDK5R1
  Relative BRET signal: 5.55
CDK5/CDK5R1; [11]
  Relative BRET Signal, CDK5 + CDK5R1: 5.55
CDK6/Cyclin D1
  Relative BRET Signal, CDK6 + Cyclin D1: 1.46
CDK7
  Relative BRET Signal, CDK7: 1.33
CDK8/Cyclin C
  Relative BRET Signal, CDK8 + Cyclin C: 1.08
CDK9/Cyclin K; CDK9 + Cyclin K
  Relative BRET signal: 3.53
CDK9/Cyclin K; [11]
  Relative BRET Signal, CDK9 + Cyclin K: 3.53
CDK11A/Cyclin L2
  Relative BRET Signal, CDK11A + Cyclin L2: 1.06
CDK11B/Cyclin L2
  Relative BRET Signal, CDK11B + Cyclin L2: 1.03
CDK12/Cyclin K; CDK12 + Cyclin K
  Relative BRET signal: 1.39
CDK12/Cyclin K; [11]
  Relative BRET Signal, CDK12 + Cyclin K: 1.39
CDK13/Cyclin K; CDK13 + Cyclin K
  Relative BRET signal: 1.29
CDK13/Cyclin K; [11]
  Relative BRET Signal, CDK13 + Cyclin K: 1.29
CDK14/Cyclin Y
  Relative BRET Signal, CDK14 + Cyclin Y: 1.26
CDK15/Cyclin Y
  Relative BRET Signal, CDK15 + Cyclin Y: 1.74
CDK16/Cyclin Y; CDK16 + Cyclin Y
  Relative BRET signal: 2.21
CDK16/Cyclin Y; [11]
  Relative BRET Signal, CDK16 + Cyclin Y: 2.21
CDK17/Cyclin Y; CDK17 + Cyclin Y
  Relative BRET signal: 2.21
CDK17/Cyclin Y; [11]
  Relative BRET Signal, CDK17 + Cyclin Y: 2.21
CDK18/Cyclin Y; CDK18 + Cyclin Y
  Relative BRET signal: 3.25
CDK18/Cyclin Y; [11]
  Relative BRET Signal, CDK18 + Cyclin Y: 3.25
CDK20/Cyclin H; CDK20 + Cyclin H
  Relative BRET signal: 2.93
CDK20/Cyclin H; [11]
  Relative BRET Signal, CDK20 + Cyclin H: 2.93
CDK20/Cyclin H; probe titration up to 1µM, HEK-293, n=1
  Probe EC50, NanoLuc-CDK20/ Cyclin E1: undefined
[1]
  Relative BRET signal: 1.83
[2]
  Relative BRET signal: 8.08
[3]
  Relative BRET signal: 1.62
[4]
  Relative BRET signal: 3.12
[5]
  Relative BRET signal: 5.09
[6]
  Relative BRET signal: 3.17
[7]
  Relative BRET signal: 2.57
[8]
  Relative BRET signal: 2.58
[9]
  Relative BRET signal: 1.22
[10]
  Relative BRET signal: 2.48
CDK19/Cyclin C
  Relative BRET Signal, CDK19 + Cyclin C: 1.02
CDK10/Cyclin L2
  Relative BRET Signal, CDK10 + Cyclin L2: 1.43

Structures were worked out from names or drawings and are uncertain.
